Data taken from patent publication US11559517B2, “Promotion of epithelial repair” (Telethon Kids Institute, priority 2018, dated 2023).
For some of these results: At least one structure is not confirmed: it was looked up by name or label, or the drawing left a doubt. Some of these results come from one statement about several compounds together.

Assays:
Assay type in all cases: cell-based, human
[1] = tested on: pAEC from non-asthmatic children; test: Scratch wound repair assay (wound closure), pAEC from non-asthmatic children; settings: 10 μM; 48 hours post wounding
Description: (§1) Two in vitro scratch wound models were used. […] Wound closure was calculated through image analysis by the accompanying live-cell imaging system (Essen Bioscience, Ann Arbor, Mich., USA).
(§2) To assess in vitro wound repair kinetics, linear scratch wounds were created using a commercial monolayer wounding kit. Once confluent, cell cultures were placed in starvation media (BEGM™ without epidermal growth factor) for about 24 hours prior to wounding. At the time of wounding, cell cultures were treated with compound dilution (10 μM), DMSO vehicle (0.05% v/v) or untreated. Wound closure rates were calculated through image analysis by the accompanying live-cell imaging system (Essen Bioscience, Ann Arbor, Mich., USA).

[2] = tested on: pAEC from asthmatic children; test: Scratch wound repair assay (wound closure), pAEC from asthmatic children; settings: for accelerated wound repair compared to DMSO vehicle / accelerated repair compared to DMSO vehicle: 10 μM; for accelerated wound repair compared to DMSO vehicle: 48 hours, in pAEC from one patient only; for wound closure (effect in words): 10 μM treatment; for accelerated repair compared to DMSO vehicle: 48 hours treatment post wounding
Description: as §1, §2

[3] = tested on: pAEC from asthmatic children; test: as above; settings: 0.01-10 μM at time of scratch wounding
integrin β1 = test: On-Cell Western assay of integrin β1 cell membrane expression, pAEC from asthmatic children; settings: 0.01-10 μM, concentration-dependent, 12 h and 48 h
Description: (§3) Cells were plated at 1.2×10^5 cells/cm^2 onto 96-well plates precoated with fibronectin ([…]) and maintained as described earlier. Briefly, following relevant treatments and controls, confluent cell monolayers were fixed with 10% (v/v) NBF for 20 minutes at room temperature and then either permeabilized with 0.1% (v/v) Triton X-100 or incubated with PBS for 25 minutes. Cells were blocked for 90 min at room temperature with the Odyssey® blocking buffer (PBS) (LI-COR Biosciences). Cells were then stained with rabbit anti-human integrin α5 (1:100; clone EPR7854, Abcam), mouse anti-human integrin β1 (1:1000; clone P5D2, Abcam), rabbit anti-human phospho-Akt (Ser473) (1:100; clone D9E, Abcam) or mouse anti-human total Akt (pan) (1:100; clone 40D4, Abcam) for 24 hours at 4° C. Antibody binding was determined using IRDye 800 CW-conjugated goat anti-rabbit IgG (1:800; 925-32211, LI-COR Biosciences) and goat anti-mouse IgG (1:800; 925-32210, LI-COR Biosciences), as well as DRAQ5 (1:10000; DR50200, BioStatus Limited) and Sapphire700 (1:1000; 928-40022, LI-COR Biosciences) for cell number normalization, for 1 hour at RT with gentle shaking in the dark. Specific antibody staining for protein expression was then immediately visualized and quantified using an infrared imaging system (LI-COR Biosciences).
(§4) After this, cells were washed in 1× phosphate-buffered saline (PBS) and incubated with IRDye-conjugated secondary antibody (1:800 goat anti-rabbit and goat anti-mouse IgG, LI-COR Biosciences, Lincoln, Nebr., USA) containing DRAQ5 (1:10000, BioStatus Limited, Shepshed, United Kingdom) and Sapphire700 (1:1000, LI-COR Biosciences, Lincoln, Nebr., USA) for 1 hour at RT with gentle shaking in a dark room. Cells were then washed for an additional five times in PBS. Specific antibody staining for protein expression was then immediately visualized using an infrared imaging system (LI-COR Biosciences, Lincoln, Nebr., USA

Akt (serine residue 473) = test: In-Cell Western assay of Akt phosphorylation, pAEC from asthmatic children; settings: 0.01-10 μM, 12 h and 48 h post treatment
Description: as §3

[4] = tested on: leading edge pAEC from asthmatic children; test: Leading edge cell tracking after scratch wounding, pAEC from asthmatic children; settings: 0.01-10 μM
Description: Manual Tracking, an ImageJ2 plugin publicly available was utilized for its capacity to manually track cells in two dimensions, the x and y planes. […] The selected cells were tracked over the first 12 h post wounding, where this procedure generated x and y coordinates for the position of the nucleus of each tracked cell at each time point. The x,y coordinates of the tracked cells were exported in a tab delimited format and all tracks were transformed to migrate up towards the y-axis. Graphical representation and analysis of the cell migration parameters was performed using the Chemotaxis and Migration Tool 2.0 (Ibidi®, Martinsried, Bayern, Germany). The x,y coordinates were imported into the Chemotaxis and Migration Tool 2.0, where the x,y coordinates of cell tracks were transformed to a common origin (0,0) for downstream data analysis and visualization purposes. […] In addition, circular plots were used to indicate the directional frequency of tracks at each angle position, with the maxima of counts, marked in red. Migration parameters of cell tracks were then quantified including; (1) distance migrated (μm) which represented the displacement of a cell from the start to its endpoint, (2) velocity (μm/min), which is a function of displacement overtime, and (3) directionality (AU), which represents a measurement of the directness or straightness of a cell trajectory and was calculated as a ratio of the cell displacement over the accumulated distance migrated. A ratio of 1 indicated absolute directional cell migration and a ratio of 0 indicated totally random migration. Since directionality is not a direct measure of chemotaxis, the determined forward migration index (FMI) (AU) was then utilized to represent the efficiency of the leading edge cells to migrate towards the center of the wounded area. Since leading edge cells were expected to move forward towards the center of the wound, FMI along the y-axis (yFMI) was reported. yFMI was calculated as a ratio of the y-coordinate at the cell endpoint over displacement, where a high determined value indicated a high efficiency of leading edge cells to respond to the generated wound.

integrin α5 = test: On-Cell Western assay of integrin α5 cell membrane expression, pAEC from asthmatic children; settings: 0.01-10 μM, concentration-dependent, 12 h and 48 h
Description: as §3, §4

Nc1ccc(S(N)(=O)=O)cc1 [Compound C17, Sulfanilamide]
negative effect on wound repair compared to DMSO vehicle [1]: 10-25%

CCC(=O)NS(=O)(=O)c1ccc(-c2c(-c3ccccc3)noc2C)cc1 [Compound C14, Parecoxib Sodium]
accelerated wound repair compared to DMSO vehicle [2]: at least 60%

Cc1ccc(C)c(-c2cc(C(F)(F)F)nn2-c2ccc(S(N)(=O)=O)cc2)c1 [dimethyl-Celecoxib]
wound closure (effect in words) [2]: complete repair
wound closure (effect in words) ([2]; listed as dimethyl-celecoxib): full wound closure
wound closure rates (effect in words) [3]: increase in wound closure rates
wound closure rates (effect in words) ([3]; listed as dimethyl-celecoxib): significant enhancement of airway epithelial repair in a concentration-dependent manner
integrin β1 cell membrane expression (integrin β1): Significant activation
integrin β1 cell membrane expression (integrin β1; listed as dimethyl-celecoxib): upregulate cell membrane expression of integrin α5β1 protein
phosphorylation of Akt (Ser473) / PI3K/Akt signaling (Akt (serine residue 473)): resulted in phosphorylation of Akt
phosphorylation of Akt (Ser473) / PI3K/Akt signaling (Akt (serine residue 473); listed as dimethyl-celecoxib): activated PI3K/Akt signaling
leading edge cell migration (distance migrated, velocity, directionality, yFMI) [4]: stimulated distance migrated, velocity, directionality and centrality (yFMI)
leading edge cell migration (distance migrated, velocity, directionality, yFMI) ([4]; listed as dimethyl-celecoxib): enhancing leading edge cell migration
integrin α5 cell membrane expression (integrin α5): Significant activation
integrin α5 cell membrane expression (integrin α5; listed as dimethyl-celecoxib): upregulate cell membrane expression of integrin α5β1 protein

CS(=O)(=O)c1ccc(-n2nc(C(F)(F)F)cc2-c2ccc(F)cc2)cc1 [Compound C22, 5-(4-fluorophenyl)-1-[4-(methylsulfonyl)phenyl]-3-(trifluoromethyl)-1H-pyrazole]
accelerated repair compared to DMSO vehicle [2]: at least 140%
increased wound closure compared to DMSO vehicle [1]: at least 20%

Cc1ccc(-c2cc(C(F)(F)F)n(-c3ccc(S(N)(=O)=O)cc3)n2)cc1 [Compound C7, N-De(4-sulfonamidophenyl)-N′-(4-sulfonamidophenyl) Celecoxib]
accelerated repair compared to DMSO vehicle [2]: at least 140%

CS(=O)(=O)Nc1ccc([N+](=O)[O-])cc1OC1CCCCC1 [Compound C12, N-[2-(Cyclohexyloxy)-4-nitrophenyl]methanesulfonamide]
accelerated wound repair compared to DMSO vehicle [2]: at least 60%
increased wound closure compared to DMSO vehicle [1]: 10-20%
